Source: USRE38117E1, “Trioxane dimer compound having antiproliferative and antitumor activities” (Hauser, Inc., priority 1995, dated 2003)
Some results were stated once for a whole list of compounds, not compound by compound.

Tested on: MOLT-4
Test: NCI 60 cell line screen (SRB), Leukemia
Type: cell-based
Conditions: MOLT-4 (Leukemia); listed as paclitaxel

For `CC(=O)O[C@H]1C(=O)[C@@]2(C)[C@H]([C@H](OC(=O)c3ccccc3)[C@]3(O)C[C@H](OC(=O)[C@H](O)[C@@H](NC(=O)c4ccccc4)c4ccccc4)C(C)=C1C3(C)C)[C@]1(OC(C)=O)CO[C@@H]1C[C@@H]2O` [Paclitaxel, paclitaxel, reference compound], the Log10LC50 was “greater than −4.00 M” and the Log10TGI was “greater than −4.00 M”.
